Source: patent US20140357549A1 (UNIVERSITY OF PITTSBURGH OF THE COMMONWEALTH SYSTEM OF …, published 2014)
No constants are given. Whether binding was seen depends on the method and setting. Some entries that bind do so weakly or less than the wild type. For some of these results: Tags and fused reporters may be left off the sequences shown.

T1: Nox1 (UniProt Q9Y5S8 1-564, limits assumed)
T1 sequence (looked up): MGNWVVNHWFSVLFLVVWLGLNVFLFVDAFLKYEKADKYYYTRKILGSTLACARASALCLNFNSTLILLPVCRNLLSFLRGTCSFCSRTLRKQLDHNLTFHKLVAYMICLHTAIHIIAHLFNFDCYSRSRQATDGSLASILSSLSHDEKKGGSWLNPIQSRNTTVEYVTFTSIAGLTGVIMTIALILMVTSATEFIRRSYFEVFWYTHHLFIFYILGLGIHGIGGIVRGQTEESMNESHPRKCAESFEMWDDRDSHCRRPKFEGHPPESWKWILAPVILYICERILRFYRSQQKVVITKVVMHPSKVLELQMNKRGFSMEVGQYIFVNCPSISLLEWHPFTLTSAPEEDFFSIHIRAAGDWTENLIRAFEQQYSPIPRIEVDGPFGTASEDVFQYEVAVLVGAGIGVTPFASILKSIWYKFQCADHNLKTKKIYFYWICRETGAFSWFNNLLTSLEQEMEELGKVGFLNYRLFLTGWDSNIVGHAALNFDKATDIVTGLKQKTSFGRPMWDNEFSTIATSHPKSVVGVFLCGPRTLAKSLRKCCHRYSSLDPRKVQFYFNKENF


What was measured:
[1] = target: T1, Nox1; assay: ELISA: biotin peptide on neutravidin plates, cell membranes added, Nox1 detected by rabbit anti-Nox1 antibody and FITC secondary antibody
[2] = target: T1, Nox1; assay: heading of Example 7 (ELISA, ICCS and FRET)
[3] = target: Nox1-YFP (UniProt Q9Y5S8); assay: spectroscopy (ICCS) competition against rhodamine-labeled NoxA1ds
[4] = target: Nox1-YFP (UniProt Q9Y5S8); assay: ICCS competition against R-NoxA1ds on Nox1-YFP

Row | Binder | binding [1] | binding [2] | binding [3] | binding [4]
1 | EPVDALGKAKV (biotin tag (position not given); C-terminal amide as printed for NoxA1ds) [biotin-tagged NoxA1ds] | binds | – | – | –
2 | EPVDALGKAKV (C-terminal amide ([CONH2])) [NoxA1ds] | – | binds | binds | binds
